Data taken from PubChem BioAssay AID504834 (National Center for Advancing Translational Sciences (NCATS), 2011).
Among all 320,000 compounds or so, about 22,000 (6.9%) were called active. This list was built around the results that the source calls inconclusive (neither active nor inactive); the mix of calls is not that of the screen. Calls come from the whole dose curve; as a rule, active = well fitted inhibition curve with a large enough effect; inconclusive = small, poorly fitted or top-dose-only effect, or another doubt; inactive = no such curve, though single readings can be large or run the other way. Where the call is inconclusive, the potency comes from a doubtful curve fit.

assay: Primary qHTS for delayed death inhibitors of the malarial parasite plastid, 96 hour incubation; details: P. falciparum luciferase reporter growth; series mostly up to 28.7 µM; activity change, negative = inhibition: at the top concentration
Summary of the method: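 Parasite growth measured via integrated firefly luciferase reporter in P. falciparum. Infected erythrocytes at 2% hematocrit, 0.05% parasitemia final were treated 96 hours at 37 C under 5% CO2, and luminescence was read.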
% is set by controls: 0 for no effect and ±100 for the full control effect; potency is the fitted concentration of half-maximal effect.

| Structure (SMILES) | activity change, negative = inhibition | Potency |
| --- | --- | --- |
| CNC(=O)c1c(NC(=O)c2cccc(N3C(=O)CCC3=O)c2)sc2c1CCC2 | inactive: -22% | – |
| Cc1cccc(N2CCN(c3ccc(NC(=O)/C=C(/C(=O)O)c4ccccc4)cc3)CC2)c1 | – | inconclusive: 7.38 µM [inhibitor, partial curve, poor fit] |
| Cn1nc(-c2ccc(NCCO)c([N+](=O)[O-])c2)c2ccccc2c1=O | – | active: 5.22 µM |
| O=C1C(=O)N(CCCO)C(c2ccc(Br)cc2)/C1=C(\O)c1ccc(Br)cc1 (centres undefined) | inactive: 6.28% | – |
| CC(=O)c1cccc(OCC(O)CN2CCN(S(=O)(=O)c3c(F)cccc3F)CC2)c1 (centres undefined) | – | inconclusive: 1.85 µM [inhibitor, full curve, poor fit] |
| COc1cc(NC(=O)c2ccc(COCC(F)(F)F)cc2)cc(OC)c1OC | – | inconclusive: 0.147 µM [inhibitor, full curve] |
| O=C(Cn1c(=O)oc2ccccc21)NCC1COc2ccccc2O1 (centres undefined) | inactive: 18.1% | – |
| S=C(NNc1cccc(Cl)c1)NC1CCCCC1 | – | inconclusive: 18.5 µM [inhibitor, single point] |
| CCOC(=O)c1cc(-c2ccccc2)sc1NC(=O)C(C)C | – | inconclusive: 4.15 µM [inhibitor, single point] |
| Cc1ccc(NC(=O)CSc2nnc(Cc3csc(C)n3)o2)cc1 | – | inconclusive: 10.4 µM [inhibitor, partial curve, poor fit] |
| CCN(CC(=O)NCc1ccc(Cl)cc1)C(=O)CN1C(=O)NC(CC)(c2ccccc2)C1=O (centres undefined) | inactive: -14% | – |
| Cc1cc(C)nc(N/N=C/c2cc(C)n(CC(F)(F)F)c2C)n1 | – | inconclusive: 18.5 µM [inhibitor, single point] |
| O=C(NNS(=O)(=O)c1ccc(F)cc1F)c1csc(-c2cccnc2)n1 | – | inconclusive: 8.28 µM [inhibitor, partial curve, poor fit] |
| CCOc1ccc(NC(=O)CCN2CCN(c3ccccc3)CC2)cc1 | – | inconclusive: 16.5 µM [inhibitor, partial curve, poor fit] |
| COC(=O)CCC(=O)OC1(C)C(=O)C=C2C=C3CCCN3C=C2C1=O (centres undefined) | inactive: 52.1% | – |
| Cc1ccc2c(c1)-c1c(cnn1CC(=O)O)CO2 | – | inconclusive: 14.7 µM [inhibitor, single point] |
| CC(C)(C)c1nc2c(C#N)c(-c3ccc(Cl)cc3)ccn2n1 | – | inconclusive: 18.5 µM [inhibitor, single point] |
| O=C(NCCc1ccccc1)C1CC(=O)N(CCc2ccccc2)C1 (centres undefined) | – | inconclusive: 18.5 µM [inhibitor, single point] |
| COC(=O)c1cc(S(=O)(=O)NC2CCN(Cc3ccccc3)CC2)cn1C | – | inconclusive: 13.1 µM [inhibitor, partial curve] |
| O=C(O)Cc1ccc(N=Nc2c(O)c(C(=O)O)cc3ccccc23)cc1 | – | inconclusive: 2.33 µM [inhibitor, full curve, poor fit] |
| CCc1sc(C(=O)Nc2nccs2)cc1C | inactive: 115% | – |
| COc1ccc(C)cc1NC(=O)CSc1nnc(CC(=O)Nc2ccccc2F)n1C | – | inconclusive: 0.0047 µM [inhibitor, full curve, poor fit] |

Single records, as listed above.
CCOC(=O)c1cc(-c2ccccc2)sc1NC(=O)C(C)C as listed: Potency: inconclusive: 4.15 µM [inhibitor, single point]
Cc1ccc(NC(=O)CSc2nnc(Cc3csc(C)n3)o2)cc1 as listed: Potency: inconclusive: 10.4 µM [inhibitor, partial curve, poor fit]

Continuation:

| Structure (SMILES) | activity change, negative = inhibition | Potency |
| --- | --- | --- |
| Sc1oc(-c2ccccc2)cc1C=Nc1ccccc1 | – | inconclusive: 10.4 µM [inhibitor, partial curve, poor fit] |
| COC(=O)C1C(=O)NC(SC)=C(C#N)C1c1ccccc1 (centres undefined) | – | inconclusive: 0.131 µM [inhibitor, full curve, poor fit] |
| COCC(=O)Nc1cc(C)cn(Cc2c(F)cccc2Cl)c1=O | – | inconclusive: 0.0586 µM [inhibitor, full curve, poor fit] |
| CC(C)Cn1c(-c2ccco2)nc2c(c(=O)c3ccccc3n2C)c1=O | – | active: 1.17 µM |
| CN1C(=O)Cc2cc(S(=O)(=O)N3CCN(c4ccccc4F)CC3)ccc21 | inactive: 9.89% | – |
| COc1ccccc1N1CC(C(=O)Nc2nnc(SCC(=O)N3CCOCC3)s2)CC1=O (centres undefined) | – | inconclusive: 18.5 µM [inhibitor, single point] |
| CCOC(=O)N1CCN(c2c(N3CCc4ccccc4C3)c(=O)c2=O)CC1 | – | inconclusive: 13.1 µM [inhibitor, single point] |
| Cn1c(=O)n(C)c2cc(NS(=O)(=O)c3cccs3)ccc21 | – | inconclusive: 9.28 µM [inhibitor, partial curve] |
| COc1ccc(OC)c(CN2CCC(Cc3ccccc3)CC2)c1 | – | inconclusive: 18.5 µM [inhibitor, single point] |
| O=C(O)C(Cc1cc(Cl)ccc1Cl)Sc1nc2ccccc2[nH]1 (centres undefined) | inactive: 0% | – |
| O=C(O)c1ccccc1-c1c2cc(Br)c(=O)cc-2oc2[c]([Hg])c(O)c(Br)cc12 | – | active: 6.42 µM |
| CCOCCCNC(=O)c1c(N)n(-c2ccc3c(c2)OCO3)c2nc3ccccc3nc12 | – | inconclusive: 4.65 µM [inhibitor, partial curve] |
| Fc1ccc(N2CCN(C3CCC(c4ccccc4)CC3)CC2)cc1 (centres undefined) | – | inconclusive: 13.1 µM [inhibitor, single point] |
| COc1ccc(S(=O)(=O)N2CCN(c3cc(-c4ccccc4)nc4ncnn34)CC2)cc1 | inactive: 23.7% | – |
| O=Cc1ccc(-c2ccc(Cl)cc2Cl)[nH]1 | inactive: 0% | – |
| CCOC(=O)N1CCC(N2CCN(S(=O)(=O)CC)CC2)CC1 | – | inconclusive: 0.465 µM [inhibitor, full curve, poor fit] |
| Cc1cc(NC(=O)CSc2nccn2-c2cccc(C)c2C)no1 | – | active: 8.28 µM |
| Cc1ccccc1Nc1c(-c2ccccn2)nc2c(C)cccn12 | – | inconclusive: 1.85 µM [inhibitor, single point] |
| COc1ccccc1-c1cc(C(=O)N2CCN(S(=O)(=O)c3ccc(C)cc3)CC2)[nH]n1 | – | active: 14.7 µM |
| Cc1ccccc1N1CCN(C(=O)NCc2cccc(Cl)c2)CC1 | – | inconclusive: 18.5 µM [inhibitor, single point] |
| O=C(CCl)N1c2ccccc2OCC1c1ccccc1 (centres undefined) | – | inconclusive: 13.1 µM [inhibitor, single point] |
| O=C(Nc1c[nH]c(=O)[nH]c1=O)c1cc([N+](=O)[O-])cc([N+](=O)[O-])c1 | – | inconclusive: 5.86 µM [inhibitor, partial curve, poor fit] |
